Source: the supplement of paper PMC4604168 (melanoma cell lines)
The list shows a part of the results. Many values rest on one well or one pass, so single values are uncertain.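 Imaging used 1,536-well plates; nuclei positive for cleaved PARP by antibody were divided by total DNA-stained nuclei to yield the apoptosis fraction. Doses for screening kept most cells viable, and cell lines differ markedly in resting and induced cleaved-PARP levels.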

What was measured:
Assay in all cases: cleaved PARP positive nuclei fraction relative to DMSO control; melanoma cells; higher = more apoptosis
Conditions in all cases: library dose: low library concentration; 72 h
A101D = test system: A101D
A2058 = test system: A2058
A375 = test system: A375
C32 = test system: C32
CBRC008 = test system: CBRC008 (line from a melanoma biopsy)
CBRC013 = test system: CBRC013 (line from a melanoma biopsy)
CBRC014 = test system: CBRC014 (line from a melanoma biopsy)
CBRC016 = test system: CBRC016 (line from a melanoma biopsy)
CBRC017 = test system: CBRC017 (line from a melanoma biopsy)
COLO792 = test system: COLO792
COLO800 = test system: COLO800
COLO829 = test system: COLO829
G361 = test system: G361
IPC-298 = test system: IPC-298
IST-MEL1 = test system: IST-MEL1
LOXIMVI = test system: LOXIMVI
MEL-HO = test system: MEL-HO
CBRC034 = test system: CBRC034 (line from a melanoma biopsy)

SMILES	cleaved PARP positive nuclei fraction (A101D) [%]	cleaved PARP positive nuclei fraction (A2058) [%]	cleaved PARP positive nuclei fraction (A375) [%]	cleaved PARP positive nuclei fraction (C32) [%]	cleaved PARP positive nuclei fraction (CBRC008) [%]	cleaved PARP positive nuclei fraction (CBRC013) [%]	cleaved PARP positive nuclei fraction (CBRC014) [%]	cleaved PARP positive nuclei fraction (CBRC016) [%]	cleaved PARP positive nuclei fraction (CBRC017) [%]	cleaved PARP positive nuclei fraction (COLO792) [%]	cleaved PARP positive nuclei fraction (COLO800) [%]	cleaved PARP positive nuclei fraction (COLO829) [%]	cleaved PARP positive nuclei fraction (G361) [%]	cleaved PARP positive nuclei fraction (IPC-298) [%]	cleaved PARP positive nuclei fraction (IST-MEL1) [%]	cleaved PARP positive nuclei fraction (LOXIMVI) [%]	cleaved PARP positive nuclei fraction (MEL-HO) [%]	cleaved PARP positive nuclei fraction (CBRC034) [%]
OCc1c[nH]c2ccccc12 [Indole-3-carbinol] + NCC(=O)Nc1ccc(-n2nc(C(F)(F)F)cc2-c2ccc3c(ccc4ccccc43)c2)cc1 [OSU03012] (first compound 0.8 µM, partner dose 1 µM)	34.2	73.6	1760	99.6	50.6	144	90.5	142	117	95.2	20.8	118	93.7	213	72.7	156	65.6	–
OCCn1cc(-c2cnc3nnn(Cc4ccc5ncccc5c4)c3n2)cn1 + CCN(CC)CCCCNc1ncc2cc(-c3cc(OC)cc(OC)c3)c(NC(=O)NC(C)(C)C)nc2n1 [PD173074] (first compound 1 µM, partner dose 0.1 µM)	57.2	42.5	65.1	66.9	–	357	95.8	88.9	83.7	203	96.6	134	99.4	41.3	85	69.1	–	74.7
Cc1cc(N2CCOCC2)cc2[nH]c(-c3c(NC[C@@H](O)c4cccc(Cl)c4)cc[nH]c3=O)nc12 + Oc1cc(-c2nc(-c3ccccc3)[nH]c2-c2ccncc2)ccc1Cl [L779450] (first compound 0.2 µM, partner dose 0.2 µM)	61.3	32.3	157	49.4	–	166	107	63.8	81.6	164	208	82.4	182	93	28.5	57.5	–	111
Cc1ccc(NC(=O)c2cccc(N(C)C)c2)cc1NC(=O)c1ccc(O)cc1 + Oc1cc(-c2nc(-c3ccccc3)[nH]c2-c2ccncc2)ccc1Cl [L779450] (first compound 2 µM, partner dose 0.2 µM)	108	182	121	98.1	–	128	123	85.6	89.1	72	50.2	87.2	75.7	52.2	59.3	88.3	–	94.3
Cn1nnc2c(C(N)=O)ncn2c1=O [temozolomide] + CCN(CC)CCCCNc1ncc2cc(-c3cc(OC)cc(OC)c3)c(NC(=O)NC(C)(C)C)nc2n1 [PD173074] (first compound 2 µM, partner dose 0.1 µM)	50.3	115	164	140	–	113	103	131	79.2	106	138	149	193	244	247	80.6	–	81.7
Cc1nc(Nc2ncc(C(=O)Nc3c(C)cccc3Cl)s2)cc(N2CCN(CCO)CC2)n1 [dasatanib] + Cn1cc(/C=C2\C(=O)Nc3cccnc32)c2ccccc21 [GW441756] (first compound 0.004 µM, partner dose 0.4 µM)	136	138	244	55.3	–	187	105	19.7	93.3	157	105	162	141	180	134	67.6	–	413
Cc1cc(N2CCOCC2)cc2[nH]c(-c3c(NC[C@@H](O)c4cccc(Cl)c4)cc[nH]c3=O)nc12 + CC(C)CCN1c2nc(Nc3cc(F)c(O)c(F)c3)ncc2N(C)C(=O)C1C [BID1870] (first compound 0.2 µM, partner dose 0.2 µM)	143	89.9	163	120	–	1300	112	23	87.7	166	218	71.3	25.7	173	43.3	32.3	–	50.4
